# Measured values published in PMC10865846.
# Protein sequences, listed by entry. Tags and fused reporters are not part of them.
# UniProt Q9ULT8: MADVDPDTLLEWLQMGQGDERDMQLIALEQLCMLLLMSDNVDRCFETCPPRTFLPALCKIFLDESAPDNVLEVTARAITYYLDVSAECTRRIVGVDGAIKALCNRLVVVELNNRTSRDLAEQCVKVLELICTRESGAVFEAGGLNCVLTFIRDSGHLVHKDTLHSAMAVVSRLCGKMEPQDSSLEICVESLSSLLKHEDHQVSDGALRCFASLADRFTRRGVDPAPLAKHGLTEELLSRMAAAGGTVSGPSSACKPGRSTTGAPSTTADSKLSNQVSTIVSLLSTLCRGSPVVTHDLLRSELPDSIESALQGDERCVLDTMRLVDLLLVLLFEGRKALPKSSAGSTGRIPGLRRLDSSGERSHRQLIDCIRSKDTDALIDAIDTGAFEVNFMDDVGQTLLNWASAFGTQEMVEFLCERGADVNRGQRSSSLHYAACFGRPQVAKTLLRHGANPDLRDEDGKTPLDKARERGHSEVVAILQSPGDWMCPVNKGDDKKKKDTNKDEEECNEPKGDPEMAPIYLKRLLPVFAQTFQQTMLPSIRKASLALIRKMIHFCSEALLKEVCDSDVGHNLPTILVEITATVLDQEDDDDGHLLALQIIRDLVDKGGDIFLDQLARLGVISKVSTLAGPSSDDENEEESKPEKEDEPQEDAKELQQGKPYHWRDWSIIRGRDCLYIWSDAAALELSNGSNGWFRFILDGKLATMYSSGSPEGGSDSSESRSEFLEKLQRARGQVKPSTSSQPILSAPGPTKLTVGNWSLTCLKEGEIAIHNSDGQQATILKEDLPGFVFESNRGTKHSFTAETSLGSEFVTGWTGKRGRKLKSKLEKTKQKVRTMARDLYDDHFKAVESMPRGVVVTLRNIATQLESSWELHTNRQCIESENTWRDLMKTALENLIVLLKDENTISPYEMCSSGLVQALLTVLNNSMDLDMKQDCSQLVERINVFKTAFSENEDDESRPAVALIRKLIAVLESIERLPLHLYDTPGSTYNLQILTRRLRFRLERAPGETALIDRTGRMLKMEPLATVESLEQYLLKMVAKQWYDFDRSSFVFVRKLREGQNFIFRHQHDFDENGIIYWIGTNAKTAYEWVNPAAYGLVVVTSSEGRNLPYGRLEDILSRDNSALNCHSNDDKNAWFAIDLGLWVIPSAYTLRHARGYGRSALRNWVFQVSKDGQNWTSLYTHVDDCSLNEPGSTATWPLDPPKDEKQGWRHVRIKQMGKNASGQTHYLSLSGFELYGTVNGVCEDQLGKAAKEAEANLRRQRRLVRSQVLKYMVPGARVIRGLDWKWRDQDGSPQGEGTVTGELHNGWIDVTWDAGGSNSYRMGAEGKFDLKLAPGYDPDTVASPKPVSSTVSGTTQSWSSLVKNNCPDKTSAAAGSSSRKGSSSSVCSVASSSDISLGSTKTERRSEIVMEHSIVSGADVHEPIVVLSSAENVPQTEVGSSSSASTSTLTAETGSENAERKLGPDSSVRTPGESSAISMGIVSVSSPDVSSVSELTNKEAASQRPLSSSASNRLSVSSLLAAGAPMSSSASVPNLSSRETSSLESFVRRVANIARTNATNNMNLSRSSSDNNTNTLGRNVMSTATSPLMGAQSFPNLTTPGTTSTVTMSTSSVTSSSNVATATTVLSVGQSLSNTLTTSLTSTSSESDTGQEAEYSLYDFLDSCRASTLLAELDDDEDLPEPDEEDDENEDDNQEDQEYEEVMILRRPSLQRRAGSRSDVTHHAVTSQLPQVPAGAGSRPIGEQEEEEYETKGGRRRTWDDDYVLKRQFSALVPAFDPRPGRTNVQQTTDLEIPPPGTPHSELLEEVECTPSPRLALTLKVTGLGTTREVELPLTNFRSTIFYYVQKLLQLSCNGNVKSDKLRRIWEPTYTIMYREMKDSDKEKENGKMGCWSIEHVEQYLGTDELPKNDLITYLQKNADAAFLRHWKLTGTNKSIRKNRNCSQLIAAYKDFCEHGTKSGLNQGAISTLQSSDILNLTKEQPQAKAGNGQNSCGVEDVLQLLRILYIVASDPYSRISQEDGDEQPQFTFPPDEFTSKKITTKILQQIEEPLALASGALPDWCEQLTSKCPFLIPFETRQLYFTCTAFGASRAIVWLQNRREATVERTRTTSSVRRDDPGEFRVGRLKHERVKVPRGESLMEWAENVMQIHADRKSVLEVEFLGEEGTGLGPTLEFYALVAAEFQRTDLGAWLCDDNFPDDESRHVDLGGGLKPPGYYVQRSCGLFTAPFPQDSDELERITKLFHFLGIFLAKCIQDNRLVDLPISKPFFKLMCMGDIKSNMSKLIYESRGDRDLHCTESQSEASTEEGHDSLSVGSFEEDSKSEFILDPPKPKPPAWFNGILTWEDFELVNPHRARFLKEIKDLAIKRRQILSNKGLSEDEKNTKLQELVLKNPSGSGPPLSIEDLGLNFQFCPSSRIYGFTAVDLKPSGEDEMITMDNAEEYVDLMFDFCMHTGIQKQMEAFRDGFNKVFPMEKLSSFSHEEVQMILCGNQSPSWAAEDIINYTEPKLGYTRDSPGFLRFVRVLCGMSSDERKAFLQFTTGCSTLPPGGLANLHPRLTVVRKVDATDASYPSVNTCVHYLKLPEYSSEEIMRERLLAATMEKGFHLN
# Target: Strep-NSP8 (SARS-CoV-2 non-structural protein 8) (SARS-CoV-2) (UniProt P0DTD1)
# Assay: affinity purification with mass spectrometry
substance,measurement,value
"HECT domain E3 ubiquitin protein ligase 1 (HECTD1), endogenous (from UniProt Q9ULT8 1-2610)",binding,binds

# These are yes or no findings as the source states them, for the method shown. In cells and extracts the contact can be indirect. A yes stands for co-enrichment or nearness to the bait. Other partners may have been found.
